In publication doi:10.1101/687400 one finds binding data, which are given here for one substance.

For test [1], the target named is FLAG-tagged EBOV VP24 (Zaire ebolavirus (EBOV)) (UniProt Q05322). The test is described as follows: co-IP.
Test [2] concerns the target FLAG-tagged MARV VP24 (Marburg virus (MARV)) (UniProt P35256). The test is described as follows: co-IP.

These are yes or no findings as the source states them, for the method shown. Binding seen in cells or lysates may run through a third protein. For some assays here: A result given as binding can be weak or reduced; the word gives no strength.

Consider “HA-tagged Keap1 derived from the bat Myotis lucifugus (from UniProt G1PRL8)”, for which the binding result is “no binding” in test [1] and “binds” in test [2].
